Patent US6391871B1 (priority 1996, dated 2002)

Tested on: vacuolated PC/RS neurons
Assay: Safener assay: prevention of MK-801-induced vacuole formation in PC/RS neurons
Settings: Rattus norvegicus, Neuron, sc, 4 h
Experimental: For each test agent, at least 5 dosages of the candidate safener agent were tested, and at least 4 rats were used in each dosage group.
The rats were sacrificed four hours after treatment, for histopathological evaluation. The number of vacuolated PC/RS neurons were counted on each side of the brain, at a rostrocaudal level immediately posterior to where the corpus callosum ceases decussating across the midline (approximately 5.6 mm caudal to bregma).
The result was subtracted from one and multiplied by 100, to calculate a percentage.
The confidence limits, in the right column, were the safener dosages that reduced vacuoles by 25% and 75%.

Q: Which ED50 does the source give for `CCN(CC)C(=O)N[C@H]1C=C2c3cccc4[nH]cc(c34)C[C@H]2N(C)C1` [Lisuride] here?
A: Its ED50 is 0.17 mg/kg.
